# Some of the results follow.
# B1: PX9961W-pdi-543-27-543 (Parabacteroides distasonis) (protein)
# chain: EGNATTTSYFLNDQQAIDAIDGLYERFHQEGCYGRELFWEQGAACDIVWGRTRGYNSLATLAYTGDESPLRDVFSRMYSTMSRANWIIQELVKKEKGTTLTAVEKRSLGEAYFSRGWAHYLIAYRYGTDKQGVPFVRYEDFPDDYDNSIPPQQATVMDNYKLIIEDMDKAIAYLPIFESYDADNRGRAHQAAAVAFKAKTYAYWATWDATQWNNVIEMVNQLENNYNRDLAPTFAELFSSDLKDYWNAEYLWTIPSIGGALPGGTEFPGIILENKGWGKYNGWGQMKPSYDIYEEMAKDGKGNDRLVRSILEYNQEFPFFGETRKFWSTSDLEAGFMINKYMDAFKYSDPVGEGAVSANGDWPTVRVNFPIIRFAEMLLFRAEAYLMTGQADKATADINRIRLRSNLTPLTGTATMKDLYHERRCELAFEFTDHLFDLKRWNRSSNADIKTLADKELNAHPRIRRYEDRANPESAFTIIGYEDYTNKNAYQAHMMVFPYPSEEITKSNGQLKQNEGY
# Legend:
# Assay in all cases: glycan array binding signal (z-score within array); higher = stronger binding
# Settings in all cases: glycan notation: IUPAC condensed, linker removed
# Neu5Ac(a2-3)Gal(b1-4)Glc = target: Neu5Ac(a2-3)Gal(b1-4)Glc
# Summary of the method: (§1)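 From the Consortium for Functional Glycomics database, 3228 arrays were curated, keeping only those whose protein sequence was available. Binding is given as a within-array Z-score averaged across arrays sharing a protein sequence and across linkers. Negative Z-scores can be read as non-binding.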
# [1] = target: Neu5Ac(a2-3)Gal(b1-4)GlcNAc
# Summary of the method: as §1
# [2] = target: Neu5Ac(a2-3)Gal(b1-4)GlcNAc(b1-2)Man
# Summary of the method: as §1
# [3] = target: Neu5Ac(a2-3)Gal(b1-4)GlcNAc(b1-2)Man(a1-3)[GlcNAc(b1-4)][Neu5Ac(a2-3)Gal(b1-4)GlcNAc(b1-2)Man(a1-6)]Man(b1-4)GlcNAc(b1-4)GlcNAc
# Summary of the method: as §1
# [4] = target: Neu5Ac(a2-3)Gal(b1-4)GlcNAc(b1-2)Man(a1-3)[Neu5Ac(a2-3)Gal(b1-4)GlcNAc(b1-2)Man(a1-6)]Man(b1-4)GlcNAc(b1-4)GlcNAc
# Summary of the method: as §1
# [5] = target: Neu5Ac(a2-3)Gal(b1-4)GlcNAc(b1-2)Man(a1-3)[Neu5Ac(a2-3)Gal(b1-4)GlcNAc(b1-2)Man(a1-6)]Man(b1-4)GlcNAc(b1-4)[Fuc(a1-6)]GlcNAc
# Summary of the method: as §1
# [6] = target: Neu5Ac(a2-3)Gal(b1-4)GlcNAc(b1-2)Man(a1-3)[Neu5Ac(a2-6)Gal(b1-4)GlcNAc(b1-2)Man(a1-6)]Man(b1-4)GlcNAc(b1-4)GlcNAc
# Summary of the method: as §1
# [7] = target: Neu5Ac(a2-3)Gal(b1-4)GlcNAc(b1-2)[Neu5Ac(a2-3)Gal(b1-4)GlcNAc(b1-4)]Man(a1-3)[GlcNAc(b1-4)][Neu5Ac(a2-3)Gal(b1-4)GlcNAc(b1-2)[Neu5Ac(a2-3)Gal(b1-4)GlcNAc(b1-6)]Man(a1-6)]Man(b1-4)GlcNAc(b1-4)GlcNAc
# Summary of the method: as §1
# [8] = target: Neu5Ac(a2-3)Gal(b1-4)GlcNAc(b1-2)[Neu5Ac(a2-3)Gal(b1-4)GlcNAc(b1-4)]Man(a1-3)[GlcNAc(b1-4)][Neu5Ac(a2-3)Gal(b1-4)GlcNAc(b1-4)Man(a1-6)]Man(b1-4)GlcNAc(b1-4)GlcNAc
# Summary of the method: as §1
# [9] = target: Neu5Ac(a2-3)Gal(b1-4)GlcNAc(b1-2)[Neu5Ac(a2-3)Gal(b1-4)GlcNAc(b1-6)]Man(a1-6)[Neu5Ac(a2-3)Gal(b1-4)GlcNAc(b1-2)Man(a1-3)]Man(b1-4)GlcNAc(b1-4)GlcNAc
# Summary of the method: as §1
# [10] = target: Neu5Ac(a2-3)Gal(b1-4)GlcNAc(b1-2)[Neu5Ac(a2-3)Gal(b1-4)GlcNAc(b1-6)]Man(a1-6)[Neu5Ac(a2-3)Gal(b1-4)GlcNAc(b1-2)Man(a1-3)][GlcNAc(b1-4)]Man(b1-4)GlcNAc(b1-4)GlcNAc
# Summary of the method: as §1
# [11] = target: Neu5Ac(a2-3)Gal(b1-4)GlcNAc(b1-3)Gal
# Summary of the method: as §1
# [12] = target: Neu5Ac(a2-3)Gal(b1-4)GlcNAc(b1-3)Gal(b1-3)GlcNAc
# Summary of the method: as §1
# [13] = target: Neu5Ac(a2-3)Gal(b1-4)GlcNAc(b1-3)Gal(b1-4)GlcNAc
# Summary of the method: as §1
# [14] = target: Neu5Ac(a2-3)Gal(b1-4)GlcNAc(b1-3)Gal(b1-4)GlcNAc(b1-2)Man(a1-3)[Neu5Ac(a2-3)Gal(b1-4)GlcNAc(b1-3)Gal(b1-4)GlcNAc(b1-2)Man(a1-6)]Man(b1-4)GlcNAc(b1-4)GlcNAc
# Summary of the method: as §1
# [15] = target: Neu5Ac(a2-3)Gal(b1-4)GlcNAc(b1-3)Gal(b1-4)GlcNAc(b1-3)Gal(b1-4)GlcNAc
# Summary of the method: as §1
# [16] = target: Neu5Ac(a2-3)Gal(b1-4)GlcNAc(b1-3)Gal(b1-4)GlcNAc(b1-3)Gal(b1-4)GlcNAc(b1-2)Man(a1-3)[Neu5Ac(a2-3)Gal(b1-4)GlcNAc(b1-3)Gal(b1-4)GlcNAc(b1-3)Gal(b1-4)GlcNAc(b1-2)Man(a1-6)]GalNAc
# Summary of the method: as §1
# [17] = target: Neu5Ac(a2-3)Gal(b1-4)GlcNAc(b1-3)Gal(b1-4)GlcNAc(b1-3)GalNAc
# Summary of the method: as §1
# [18] = target: Neu5Ac(a2-3)Gal(b1-4)GlcNAc(b1-3)Gal(b1-4)GlcNAc(b1-3)[Neu5Ac(a2-3)Gal(b1-4)GlcNAc(b1-3)Gal(b1-4)GlcNAc(b1-6)]GalNAc
# Summary of the method: as §1
# [19] = target: Neu5Ac(a2-3)Gal(b1-4)GlcNAc(b1-3)Gal(b1-4)GlcNAc(b1-6)[Gal(b1-3)]GalNAc
# Summary of the method: as §1
# [20] = target: Neu5Ac(a2-3)Gal(b1-4)GlcNAc(b1-3)Gal(b1-4)[Fuc(a1-3)]GlcNAc
# Summary of the method: as §1
# [21] = target: Neu5Ac(a2-3)Gal(b1-4)GlcNAc(b1-3)GalNAc
# Summary of the method: as §1
# [22] = target: Neu5Ac(a2-3)Gal(b1-4)GlcNAc(b1-3)[Neu5Ac(a2-3)Gal(b1-4)GlcNAc(b1-6)]GalNAc
# Summary of the method: as §1
# [23] = target: Neu5Ac(a2-3)Gal(b1-4)GlcNAc(b1-6)GalNAc
# Summary of the method: as §1
# [24] = target: Neu5Ac(a2-3)Gal(b1-4)GlcNAc(b1-6)[Gal(b1-3)]GalNAc
# Summary of the method: as §1
# [25] = target: Neu5Ac(a2-3)Gal(b1-4)GlcNAc(b1-6)[Neu5Ac(a2-3)Gal(b1-3)]GalNAc
# Summary of the method: as §1
# [26] = target: Neu5Ac(a2-3)Gal(b1-4)GlcNAc6S
# Summary of the method: as §1
# [27] = target: Neu5Ac(a2-3)Gal(b1-4)[Fuc(a1-3)]GlcNAc
# Summary of the method: as §1
# [28] = target: Neu5Ac(a2-3)Gal(b1-4)[Fuc(a1-3)]GlcNAc(b1-2)Man
# Summary of the method: as §1
# [29] = target: Neu5Ac(a2-3)Gal(b1-4)[Fuc(a1-3)]GlcNAc(b1-3)Gal
# Summary of the method: as §1
# [30] = target: Neu5Ac(a2-3)Gal(b1-4)[Fuc(a1-3)]GlcNAc(b1-3)Gal(b1-4)GlcNAc
# Summary of the method: as §1
# [31] = target: Neu5Ac(a2-3)Gal(b1-4)[Fuc(a1-3)]GlcNAc(b1-3)Gal(b1-4)[Fuc(a1-3)]GlcNAc(b1-3)Gal(b1-4)[Fuc(a1-3)]GlcNAc
# Summary of the method: as §1
# [32] = target: Neu5Ac(a2-3)Gal(b1-4)[Fuc(a1-3)]GlcNAc(b1-3)GalNAc
# Summary of the method: as §1
# [33] = target: Neu5Ac(a2-3)Gal(b1-4)[Fuc(a1-3)]GlcNAc(b1-6)[Gal(b1-3)]GalNAc
# Summary of the method: as §1
# [34] = target: Neu5Ac(a2-3)Gal(b1-4)[Fuc(a1-3)]GlcNAc(b1-6)[Neu5Ac(a2-3)Gal(b1-3)]GalNAc
# Summary of the method: as §1
# [35] = target: Neu5Ac(a2-3)Gal(b1-4)[Fuc(a1-3)]GlcNAc6S
# Summary of the method: as §1
# [36] = target: Neu5Ac(a2-3)Gal6S(b1-4)GlcNAc
# Summary of the method: as §1
# [37] = target: Neu5Ac(a2-3)Gal6S(b1-4)[Fuc(a1-3)]GlcNAc
# Summary of the method: as §1
binder,measurement,setting,value
B1,glycan array binding signal (z-score),Neu5Ac(a2-3)Gal(b1-4)Glc,0.071
same,glycan array binding signal (z-score),[1],-0.445
same,glycan array binding signal (z-score),[2],1.56
same,glycan array binding signal (z-score),[3],-0.853
same,glycan array binding signal (z-score),[4],-0.589
same,glycan array binding signal (z-score),[5],-0.066
same,glycan array binding signal (z-score),[6],0.694
same,glycan array binding signal (z-score),[7],-0.466
same,glycan array binding signal (z-score),[8],-0.497
same,glycan array binding signal (z-score),[9],1.21
same,glycan array binding signal (z-score),[10],0.163
same,glycan array binding signal (z-score),[11],-0.293
same,glycan array binding signal (z-score),[12],-0.968
same,glycan array binding signal (z-score),[13],-0.712
same,glycan array binding signal (z-score),[14],-0.685
same,glycan array binding signal (z-score),[15],-0.243
same,glycan array binding signal (z-score),[16],0.571
same,glycan array binding signal (z-score),[17],-0.203
same,glycan array binding signal (z-score),[18],0.661
same,glycan array binding signal (z-score),[19],-0.31
same,glycan array binding signal (z-score),[20],0.499
same,glycan array binding signal (z-score),[21],-0.939
same,glycan array binding signal (z-score),[22],-0.167
same,glycan array binding signal (z-score),[23],-0.049
same,glycan array binding signal (z-score),[24],0.953
same,glycan array binding signal (z-score),[25],-1.34
same,glycan array binding signal (z-score),[26],-0.696
same,glycan array binding signal (z-score),[27],-0.648
same,glycan array binding signal (z-score),[28],0.168
same,glycan array binding signal (z-score),[29],-0.289
same,glycan array binding signal (z-score),[30],0.072
same,glycan array binding signal (z-score),[31],0.158
same,glycan array binding signal (z-score),[32],0.167
same,glycan array binding signal (z-score),[33],-0.155
same,glycan array binding signal (z-score),[34],0.572
same,glycan array binding signal (z-score),[35],-0.871
same,glycan array binding signal (z-score),[36],-0.643
same,glycan array binding signal (z-score),[37],-0.612

# Looked up one by one from the list above (3):
binder,measurement,setting,value
B1,glycan array binding signal (z-score),[29],-0.289
same,glycan array binding signal (z-score),[26],-0.696
same,glycan array binding signal (z-score),Neu5Ac(a2-3)Gal(b1-4)Glc,0.071
